Consider one molecule from the supplement of paper PMC8728848.

This is one part of the list.

What all share (test): glycan array binding signal (z-score within array); higher = stronger binding
Details in all cases: glycan notation: IUPAC condensed, linker removed

For experiment [1], the target named is Neu5Gc(a2-8)Neu5Gc(a2-3)Gal(b1-4)GlcNAc(b1-3)Gal(b1-4)GlcNAc. The gist of the method:
(§1)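 Glycan array data came from 3228 arrays in the Consortium for Functional Glycomics database, and only arrays with an available protein sequence were kept. Glycan names were put into IUPAC-condensed notation, and columns mapping to the same glycan were averaged. The binding signal is a within-array Z-score, averaged across arrays of one protein sequence run at different concentrations or buffers and across linkers. A negative Z-score can be read as non-binding.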

For experiment [2], the target named is Neu5Gc(a2-8)Neu5Gc(a2-6)Gal(b1-4)GlcNAc. The gist of the method: as §1
Experiment [3] deals with Neu5Gc(b2-6)Gal(b1-4)GlcNAc. The gist of the method:
as §1

B1: R2-fiber (Pseudomonas aeruginosa), Q9S576 (protein)
chain: HHHHHHKVAKDLVVSLAYQVRTEDGVLVDESPVSAPLDYLHGHGSLISGLETALEGHEVGDKFDVAVGANDAYGQYDENLVQRVPKDVFMGVDELQVGMRFLAETDQGPVPVEITAVEDDHVVVDGNHMLAGQNLKFNVEVVAIREATEEELAHGHVHGAHDHHHDHDHDGCCGGHGHDHGHEHGGEGCCGGKGNGGCGCHENLYFQGVTAGMALAATDIPGLDASKLVSGVLAEQRLPVFARGLATAVSNSSDPNTATVPLMLTNHANGPVAGRYFYIQSMFYPDQNGNASQIATSYNATSEMYVRVSYAANPSIREWLPWQRCDIGGSFTKEADGELPGGVNLDSMVTSGWWSQSFTAQAASGANYPIVRAGLLHVYAASSNFIYQTYQAYDGESFYFRCRHSNTWFPWRRMWHGGDFNPSDYLLKSGFYWNALPGKPATFPPSAHNHDVGQLTSGILPLARGGVGSNTAAGARSTIGAGVPATASLGASGWWRDNDTGLIRQWGQVTCPADADASITFPIPFPTLCLGGYANQTSAFHPGTDASTGFRGATTTTAVIRNGYFAQAVLSWEAFGR
Turning to B1, the “glycan array binding signal (z-score)” value was -0.193 in experiment [1], -0.075 in experiment [2] and -0.155 in experiment [3].
